Results reported in the supplement of paper PMC6411743.
± gives the standard deviation of the averaged measurements. The entries are a selection whose mix differs from that of the whole data set.

Sequences of proteins named here, by UniProt entry; tags and fusion partners are left off. A change or cut given only in a name is not applied to a line headed by its entry.
UniProt P18859: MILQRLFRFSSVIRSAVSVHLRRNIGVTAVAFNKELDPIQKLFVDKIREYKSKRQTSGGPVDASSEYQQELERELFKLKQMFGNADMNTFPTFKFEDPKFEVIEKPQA
UniProt Q99798: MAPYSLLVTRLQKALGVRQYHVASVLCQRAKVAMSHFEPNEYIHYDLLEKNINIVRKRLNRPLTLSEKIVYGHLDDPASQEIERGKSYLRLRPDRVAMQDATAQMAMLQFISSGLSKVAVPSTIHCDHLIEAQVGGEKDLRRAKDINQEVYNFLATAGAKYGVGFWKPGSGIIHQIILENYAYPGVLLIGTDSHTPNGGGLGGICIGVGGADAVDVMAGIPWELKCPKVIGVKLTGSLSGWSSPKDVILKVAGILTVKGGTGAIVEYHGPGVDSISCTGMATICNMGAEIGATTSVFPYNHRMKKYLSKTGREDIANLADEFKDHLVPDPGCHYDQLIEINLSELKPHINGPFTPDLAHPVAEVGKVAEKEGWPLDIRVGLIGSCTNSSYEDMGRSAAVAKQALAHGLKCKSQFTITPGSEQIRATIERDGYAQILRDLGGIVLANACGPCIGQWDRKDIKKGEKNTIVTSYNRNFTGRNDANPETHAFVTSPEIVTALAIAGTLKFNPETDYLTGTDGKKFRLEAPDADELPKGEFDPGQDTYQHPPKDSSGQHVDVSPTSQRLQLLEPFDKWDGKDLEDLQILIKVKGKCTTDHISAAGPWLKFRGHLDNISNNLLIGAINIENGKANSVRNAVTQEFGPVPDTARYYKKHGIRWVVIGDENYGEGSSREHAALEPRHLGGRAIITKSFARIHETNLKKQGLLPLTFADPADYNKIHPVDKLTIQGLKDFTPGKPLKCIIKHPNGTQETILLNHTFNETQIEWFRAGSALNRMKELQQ
UniProt A0JNW5: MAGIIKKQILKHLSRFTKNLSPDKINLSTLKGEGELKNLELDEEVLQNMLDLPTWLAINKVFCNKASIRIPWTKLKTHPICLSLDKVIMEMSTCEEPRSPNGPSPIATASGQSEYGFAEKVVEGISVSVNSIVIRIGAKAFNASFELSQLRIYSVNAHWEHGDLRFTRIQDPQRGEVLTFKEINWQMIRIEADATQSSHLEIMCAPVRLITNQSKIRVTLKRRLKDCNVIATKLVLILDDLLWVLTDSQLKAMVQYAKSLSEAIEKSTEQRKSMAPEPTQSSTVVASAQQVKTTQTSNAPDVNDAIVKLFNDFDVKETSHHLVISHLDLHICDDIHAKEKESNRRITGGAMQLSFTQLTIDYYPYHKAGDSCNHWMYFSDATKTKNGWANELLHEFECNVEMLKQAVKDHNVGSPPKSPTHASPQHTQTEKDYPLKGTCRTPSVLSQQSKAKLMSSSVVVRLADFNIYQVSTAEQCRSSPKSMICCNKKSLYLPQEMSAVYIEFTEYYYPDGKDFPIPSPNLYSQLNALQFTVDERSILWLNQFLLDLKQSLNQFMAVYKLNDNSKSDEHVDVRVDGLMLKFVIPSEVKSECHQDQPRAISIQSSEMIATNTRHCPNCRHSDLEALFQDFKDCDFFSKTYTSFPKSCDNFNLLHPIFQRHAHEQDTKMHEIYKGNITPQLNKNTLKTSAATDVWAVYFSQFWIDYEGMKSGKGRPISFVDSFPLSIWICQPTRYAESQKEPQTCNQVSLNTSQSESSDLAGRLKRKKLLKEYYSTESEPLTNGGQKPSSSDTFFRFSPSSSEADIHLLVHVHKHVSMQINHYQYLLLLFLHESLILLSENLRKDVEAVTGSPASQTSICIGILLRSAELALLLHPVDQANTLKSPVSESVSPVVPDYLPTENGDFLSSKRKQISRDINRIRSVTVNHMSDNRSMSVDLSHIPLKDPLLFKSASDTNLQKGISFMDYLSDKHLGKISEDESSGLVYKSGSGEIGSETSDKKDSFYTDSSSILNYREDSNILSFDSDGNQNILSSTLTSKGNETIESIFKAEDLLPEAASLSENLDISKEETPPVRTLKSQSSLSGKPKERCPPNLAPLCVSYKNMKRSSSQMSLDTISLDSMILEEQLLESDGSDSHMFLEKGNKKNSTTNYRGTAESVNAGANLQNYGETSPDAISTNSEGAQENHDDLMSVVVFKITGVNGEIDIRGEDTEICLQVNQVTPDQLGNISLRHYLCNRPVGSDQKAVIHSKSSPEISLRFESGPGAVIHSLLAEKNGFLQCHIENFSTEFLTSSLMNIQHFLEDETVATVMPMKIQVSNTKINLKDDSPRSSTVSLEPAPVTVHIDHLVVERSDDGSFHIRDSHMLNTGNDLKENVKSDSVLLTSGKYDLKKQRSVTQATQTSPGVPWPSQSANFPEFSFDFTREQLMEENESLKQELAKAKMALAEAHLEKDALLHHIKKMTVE
UniProt O00189: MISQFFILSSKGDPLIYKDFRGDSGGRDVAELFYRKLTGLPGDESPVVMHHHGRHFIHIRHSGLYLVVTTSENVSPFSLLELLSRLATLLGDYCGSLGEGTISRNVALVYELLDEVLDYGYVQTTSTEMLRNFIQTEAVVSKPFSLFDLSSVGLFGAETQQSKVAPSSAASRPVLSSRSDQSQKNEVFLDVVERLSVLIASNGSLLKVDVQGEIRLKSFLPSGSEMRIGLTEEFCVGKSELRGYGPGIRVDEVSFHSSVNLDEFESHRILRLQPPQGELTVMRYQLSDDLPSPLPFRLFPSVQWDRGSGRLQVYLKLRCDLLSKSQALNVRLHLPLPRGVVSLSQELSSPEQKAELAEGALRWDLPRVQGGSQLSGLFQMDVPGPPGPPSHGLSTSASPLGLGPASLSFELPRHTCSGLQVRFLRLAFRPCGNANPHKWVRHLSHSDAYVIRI
UniProt Q8IVH2: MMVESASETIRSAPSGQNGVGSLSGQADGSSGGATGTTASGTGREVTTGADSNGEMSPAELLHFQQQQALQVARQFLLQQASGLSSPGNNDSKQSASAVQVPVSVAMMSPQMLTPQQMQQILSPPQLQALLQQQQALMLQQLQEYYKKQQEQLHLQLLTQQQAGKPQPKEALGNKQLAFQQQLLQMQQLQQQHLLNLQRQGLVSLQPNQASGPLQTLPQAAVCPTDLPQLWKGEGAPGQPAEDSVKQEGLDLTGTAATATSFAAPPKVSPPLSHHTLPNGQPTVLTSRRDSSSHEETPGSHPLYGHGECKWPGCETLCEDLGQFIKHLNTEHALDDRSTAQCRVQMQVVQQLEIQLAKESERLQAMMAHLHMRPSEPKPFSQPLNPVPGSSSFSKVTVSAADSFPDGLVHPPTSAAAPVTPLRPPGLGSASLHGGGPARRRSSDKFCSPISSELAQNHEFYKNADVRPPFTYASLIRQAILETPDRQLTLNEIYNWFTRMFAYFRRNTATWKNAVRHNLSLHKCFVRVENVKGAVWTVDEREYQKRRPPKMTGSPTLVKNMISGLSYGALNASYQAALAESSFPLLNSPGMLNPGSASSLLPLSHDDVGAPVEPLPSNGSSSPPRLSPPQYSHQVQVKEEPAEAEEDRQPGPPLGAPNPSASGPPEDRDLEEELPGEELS
UniProt P04062: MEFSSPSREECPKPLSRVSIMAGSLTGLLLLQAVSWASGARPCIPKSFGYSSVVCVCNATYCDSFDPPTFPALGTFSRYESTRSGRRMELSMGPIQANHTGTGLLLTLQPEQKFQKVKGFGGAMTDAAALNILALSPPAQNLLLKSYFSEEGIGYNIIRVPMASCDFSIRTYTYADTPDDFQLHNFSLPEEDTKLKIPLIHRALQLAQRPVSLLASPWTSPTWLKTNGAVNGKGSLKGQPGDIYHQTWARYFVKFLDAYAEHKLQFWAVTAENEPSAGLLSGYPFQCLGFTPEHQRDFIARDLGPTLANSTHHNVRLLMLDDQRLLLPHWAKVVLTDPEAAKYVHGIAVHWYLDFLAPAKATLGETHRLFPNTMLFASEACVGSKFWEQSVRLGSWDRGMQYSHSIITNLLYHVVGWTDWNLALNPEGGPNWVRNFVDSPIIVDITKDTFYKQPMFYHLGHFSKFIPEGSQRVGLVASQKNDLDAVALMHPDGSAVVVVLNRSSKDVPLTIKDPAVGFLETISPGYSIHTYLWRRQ
UniProt Q7Z6M4: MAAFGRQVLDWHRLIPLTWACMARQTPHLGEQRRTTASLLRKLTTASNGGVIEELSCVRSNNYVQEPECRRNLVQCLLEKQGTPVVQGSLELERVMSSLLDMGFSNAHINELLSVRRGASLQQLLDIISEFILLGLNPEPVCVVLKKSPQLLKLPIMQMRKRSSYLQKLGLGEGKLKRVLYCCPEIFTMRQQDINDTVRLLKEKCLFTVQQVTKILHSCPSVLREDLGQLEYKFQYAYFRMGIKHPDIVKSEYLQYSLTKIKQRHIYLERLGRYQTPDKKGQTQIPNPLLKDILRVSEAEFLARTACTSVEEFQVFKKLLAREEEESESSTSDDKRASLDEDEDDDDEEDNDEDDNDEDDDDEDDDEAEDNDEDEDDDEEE
UniProt P61619, whole entry: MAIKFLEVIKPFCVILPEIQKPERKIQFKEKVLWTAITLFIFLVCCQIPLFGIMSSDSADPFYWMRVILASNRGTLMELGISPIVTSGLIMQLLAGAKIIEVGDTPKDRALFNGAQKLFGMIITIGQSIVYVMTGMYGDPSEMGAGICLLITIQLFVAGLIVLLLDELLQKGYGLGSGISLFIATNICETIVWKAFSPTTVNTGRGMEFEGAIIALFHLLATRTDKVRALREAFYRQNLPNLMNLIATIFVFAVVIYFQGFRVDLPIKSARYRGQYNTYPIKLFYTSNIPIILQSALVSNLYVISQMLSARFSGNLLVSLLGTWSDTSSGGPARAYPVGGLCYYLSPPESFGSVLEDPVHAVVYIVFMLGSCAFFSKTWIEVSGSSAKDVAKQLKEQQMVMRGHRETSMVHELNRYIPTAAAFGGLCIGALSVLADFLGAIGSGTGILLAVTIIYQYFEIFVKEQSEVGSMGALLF
UniProt P84101: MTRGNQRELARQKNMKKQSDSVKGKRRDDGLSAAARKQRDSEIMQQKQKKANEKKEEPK

Compound: Nc1ncnc2c1ncn2[C@@H]1O[C@H](COP(=O)(O)OP(=O)(O)OP(=O)(O)O)[C@@H](O)[C@H]1O [adenosine triphosphate]
Assay: NP40-soluble protein abundance relative to vehicle (solubility fold change) (ratio); higher = more soluble protein in presence of ATP
Procedure, shortened: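 Jurkat crude lysate (Dounce-homogenised) was treated with eight concentrations from 0.1 to 10 mM for 10 min at room temperature, then 3 min at 37 °C. It was solubilised with 0.8% NP40 and benzonase (60 min, 4 °C) and ultracentrifuged, and the supernatant was TMT-labelled for LC-MS/MS. Intensities were vsn-normalised, and the value is the fold change against the NP40-processed vehicle per replicate, from three independent experiments.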

Target	NP40-soluble protein abundance (concentration: 1mM)	NP40-soluble protein abundance (concentration: 2mM)	NP40-soluble protein abundance (concentration: 4mM)	NP40-soluble protein abundance (concentration: 6mM)	NP40-soluble protein abundance (concentration: 8mM)	NP40-soluble protein abundance (concentration: 10mM)
A8MUH2 and related entries (UniProt P18859)	0.851 ± 0.14	0.744 ± 0.083	0.79 ± 0.1	0.848 ± 0.18	0.771 ± 0.13	0.782 ± 0.15
A2IDC6 and related entries (UniProt Q13084)	1.01 ± 0.067	0.857 ± 0.048	0.838 ± 0.16	0.826 ± 0.28	0.901 ± 0.24	0.797 ± 0.17
A2A274 and related entries (UniProt Q99798)	1.02 ± 0.031	1.02 ± 0.036	0.99 ± 0.029	0.992 ± 0.066	1 ± 0.052	0.978 ± 0.041
UniProt A0JNW5 and related entries	1.04 ± 0.09	1.06 ± 0.11	1.08 ± 0.11	0.975 ± 0.08	1.02 ± 0.099	1.02 ± 0.09
C9IZL5 and related entries (UniProt O00189)	1.07 ± 0.11	1.03 ± 0.025	1.02 ± 0.075	1.01 ± 0.16	1.02 ± 0.015	1.02 ± 0.0043
B7ZBM3 and related entries (UniProt Q8IVH2)	0.995 ± 0.085	1.02 ± 0.065	0.99 ± 0.065	1.03 ± 0.15	0.979 ± 0.098	0.989 ± 0.065
A0A0G2JLB3|A0A0G2JNZ0|A0A0G2JNZ5|P04062 and related entries (UniProt P04062)	0.896 ± 0.12	0.951 ± 0.051	0.94 ± 0.043	0.917 ± 0.076	0.898 ± 0.057	0.929 ± 0.029
B4DKD5 and related entries (UniProt Q7Z6M4)	0.89 ± 0.0077	0.995 ± 0.046	0.994 ± 0.022	1 ± 0.077	0.957 ± 0.087	1.014 ± 0.0019
B4DR61 and related entries (UniProt P61619)	1.05 ± 0.2	1.05 ± 0.14	1 ± 0.1	0.937 ± 0.17	1.03 ± 0.097	1.07 ± 0.067
B8ZZY7 and related entries (UniProt P84101)	0.713 ± 0.063	0.698 ± 0.13	0.63 ± 0.022	0.733 ± 0.12	0.579 ± 0.1	0.706 ± 0.1

Single entries from the results shown:
NP40-soluble protein abundance (concentration: 4mM) with A0A0G2JLB3|A0A0G2JNZ0|A0A0G2JNZ5|P04062 and related entries (UniProt P04062) reads 0.94 ± 0.043
NP40-soluble protein abundance (concentration: 10mM) with B8ZZY7 and related entries (UniProt P84101) reads 0.706 ± 0.1
